Assay results from patent US20110047631A1, “HEAT SHOCK PROTEIN DEFICIENCIES AS MODEL SYSTEMS FOR BRAIN PATHOLOGY AND CANCER” (Medical College of Georgia Research Institute Inc., priority 2009, published 2011).
No constants are given. Whether binding was seen depends on the method and setting. For some of these results: Binding seen in cells or lysates may run through a third protein. Some results given as binding are weak or reduced against the parent protein; the word gives no strength.

The chains behind the UniProt entries cited, without tags or fusion partners. Where a name states a change or a piece, a line headed by the entry shows the natural chain unless it says otherwise. A line that says so, or that is headed by a name, gives the form on record, which may keep a tag or linker.
tau (total tau), endogenous mouse protein in brain extracts (P10637, form named): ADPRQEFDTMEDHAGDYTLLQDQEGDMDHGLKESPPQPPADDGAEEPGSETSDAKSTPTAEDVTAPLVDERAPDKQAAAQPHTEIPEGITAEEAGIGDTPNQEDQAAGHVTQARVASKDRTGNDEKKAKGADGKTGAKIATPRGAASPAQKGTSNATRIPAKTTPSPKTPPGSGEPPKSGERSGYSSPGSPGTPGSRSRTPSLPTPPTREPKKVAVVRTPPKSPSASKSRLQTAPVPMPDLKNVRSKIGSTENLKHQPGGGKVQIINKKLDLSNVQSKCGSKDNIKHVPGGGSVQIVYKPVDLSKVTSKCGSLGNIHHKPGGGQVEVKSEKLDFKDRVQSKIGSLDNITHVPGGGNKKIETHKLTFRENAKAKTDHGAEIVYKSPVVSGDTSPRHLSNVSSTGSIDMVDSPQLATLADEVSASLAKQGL
UniProt Q9QUR7: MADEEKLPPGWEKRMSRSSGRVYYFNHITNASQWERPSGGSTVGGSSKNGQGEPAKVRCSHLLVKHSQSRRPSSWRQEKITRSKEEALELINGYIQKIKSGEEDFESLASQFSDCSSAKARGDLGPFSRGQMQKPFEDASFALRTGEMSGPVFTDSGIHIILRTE

Tests used:
[1] = molecular target: tau (total tau), endogenous mouse protein in brain extracts (mouse) (UniProt P10637); experiment: co-immunoprecipitation with antibody to total tau (DA9), immunoblot for Pin1
[2] = molecular target: tau (total tau), endogenous mouse protein in brain extracts (mouse) (UniProt P10637); experiment: immunoprecipitation of mouse brain extracts with antibody to total tau, immunoblot for Pin1
[3] = molecular target: tau (total tau), endogenous mouse protein in brain extracts (mouse) (UniProt P10637); experiment: co-immunoprecipitation from mouse brain extracts
[4] = molecular target: tau (total tau), endogenous mouse protein in brain extracts (mouse) (UniProt P10637); experiment: immunoprecipitation of 1 mg mouse brain lysate with antibody to total tau, immunoblot

binding [1]: binds | binding [2]: binds | binding [3]: binds | binding [4]: binds
Substance: peptidyl-prolyl isomerase Pin1, endogenous mouse protein in brain extracts (from UniProt Q9QUR7 1-165) (enzyme)
